# Results deposited as PubChem BioAssay AID602196 (INSERM, 2012)
# Purpose: 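Genes whose knock-down alters cisplatin killing of lung cancer cells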
# System: human A549 lung cancer cells
# Reagents: siRNA pair against human genes
# Time to read-out: 48 h transfection before cisplatin; time from cisplatin to read-out not stated
# Treatment: cisplatin at a dose killing half of control-siRNA cells; exact dose and duration not given
# Read-out: 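Shift in cisplatin death relative to control siRNA, from -50 (all cells die) to +50 (no cells die); siRNAs harmful on their own scored 0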
# Reading the numbers: two-siRNA summed score (-2 to +2): higher = both siRNAs protect from cisplatin killing; -2 means both sensitise
# Active means: 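siRNAs harmful alone (LDH or WST-1) get 0; others get +1 for less and -1 for more cisplatin killing; genes are active when the two siRNAs give the same sign, summing to ±2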
# Meaning of the calls: active = both siRNAs shift cisplatin killing the same way; inactive = no consistent shift, or siRNA harmful alone
# This is a random part of about 23,000 reagents. 455 of all reagents (2%) count as active. 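Active includes both protection and sensitisation; some change values fall well beyond the stated -50 to +50 range.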 The numbers tell different reagents against one gene apart. Not all columns of the deposit are shown. Reagent sequences are not shown. The record does not give: the amount of reagent.
Target gene,reagent,two-siRNA summed score (-2 to +2),Call
DAPK1 (death associated protein kinase 1),1,0,inactive
CSRP2 (cysteine and glycine rich protein 2),1,1,inactive
ARL13B (ARF like GTPase 13B),1,0,inactive
FKBP4P7 (FKBP prolyl isomerase 4 pseudogene 7),1,0,inactive
HOXA9 (homeobox A9),1,0,inactive
LOC401006,1,0,inactive
EYA2 (EYA transcriptional coactivator and phosphatase 2),1,0,inactive
MAST3 (microtubule associated serine/threonine kinase 3),1,0,inactive
ANKRD11 (ankyrin repeat domain 11),1,0,inactive
TMEM40 (transmembrane protein 40),1,0,inactive
ERBB2 (erb-b2 receptor tyrosine kinase 2),1,-1,inactive
LOC284527,1,0,inactive
IKZF5 (IKAROS family zinc finger 5),1,0,inactive
CENPB (centromere protein B),1,1,inactive
NEDD8 (NEDD8 ubiquitin like modifier),1,-2,active
GLIPR1L1 (GLIPR1 like 1),1,2,active
"H1-1 (H1.1 linker histone, cluster member)",1,1,inactive
CASP10 (caspase 10),1,0,inactive
AP3M2 (adaptor related protein complex 3 subunit mu 2),1,0,inactive
LOC441042,1,0,inactive
TMEM209 (transmembrane protein 209),1,0,inactive
MTA3 (metastasis associated 1 family member 3),1,0,inactive
TTLL9 (tubulin tyrosine ligase like 9),1,0,inactive
CIAO1 (cytosolic iron-sulfur assembly component 1),1,0,inactive
TMEM132B (transmembrane protein 132B),1,-2,active
"TONSL (tonsoku like, DNA repair protein)",1,0,inactive
MESD (mesoderm development LRP chaperone),1,0,inactive
CRISPLD2 (cysteine rich secretory protein LCCL domain containing 2),1,0,inactive
STK35 (serine/threonine kinase 35),1,-1,inactive
"WIPI2 (WD repeat domain, phosphoinositide interacting 2)",1,1,inactive
WARS1 (tryptophanyl-tRNA synthetase 1),1,0,inactive
MS4A6E (membrane spanning 4-domains A6E),1,-1,inactive
TAS2R50 (taste 2 receptor member 50),1,0,inactive
CHIT1 (chitinase 1),1,-1,inactive
"VEZT (vezatin, adherens junctions transmembrane protein)",1,0,inactive
CARD16 (caspase recruitment domain family member 16),1,0,inactive
CARD16 (caspase recruitment domain family member 16),2,0,inactive
LOC123103,1,0,inactive
ZMPSTE24 (zinc metallopeptidase STE24),1,-1,inactive
ADAM8 (ADAM metallopeptidase domain 8),1,1,inactive
RARG (retinoic acid receptor gamma),1,0,inactive
IL31RA (interleukin 31 receptor A),1,0,inactive
GNA13 (G protein subunit alpha 13),1,-1,inactive
GSKIP (GSK3B interacting protein),1,0,inactive
SYNJ2BP (synaptojanin 2 binding protein),1,0,inactive
DKKL1 (dickkopf like acrosomal protein 1),1,0,inactive
RNF180 (ring finger protein 180),1,1,inactive
MAP3K20 (mitogen-activated protein kinase kinase kinase 20),1,0,inactive
MPPE1 (metallophosphoesterase 1),1,1,inactive
SF3B5 (splicing factor 3b subunit 5),1,0,inactive
"PPM1B (protein phosphatase, Mg2+/Mn2+ dependent 1B)",1,-2,active
PDE4D (phosphodiesterase 4D),1,-1,inactive
CTLA4 (cytotoxic T-lymphocyte associated protein 4),1,0,inactive
DSG3 (desmoglein 3),1,-2,active
EFHD1 (EF-hand domain family member D1),1,0,inactive
MFN1 (mitofusin 1),1,0,inactive
GRIN2C (glutamate ionotropic receptor NMDA type subunit 2C),1,0,inactive

Part of the list above in another layout:
MESD (mesoderm development LRP chaperone)
- two-siRNA summed score (-2 to +2): 0
- Call: inactive

CRISPLD2 (cysteine rich secretory protein LCCL domain containing 2)
- two-siRNA summed score (-2 to +2): 0
- Call: inactive

STK35 (serine/threonine kinase 35)
- two-siRNA summed score (-2 to +2): -1
- Call: inactive

WIPI2 (WD repeat domain, phosphoinositide interacting 2)
- two-siRNA summed score (-2 to +2): 1
- Call: inactive

WARS1 (tryptophanyl-tRNA synthetase 1)
- two-siRNA summed score (-2 to +2): 0
- Call: inactive

MS4A6E (membrane spanning 4-domains A6E)
- two-siRNA summed score (-2 to +2): -1
- Call: inactive

TAS2R50 (taste 2 receptor member 50)
- two-siRNA summed score (-2 to +2): 0
- Call: inactive

CHIT1 (chitinase 1)
- two-siRNA summed score (-2 to +2): -1
- Call: inactive
